The list shows a part of the results. The main result of the screen is listed elsewhere. These columns were measured beside it and carry no call. Compounds called inactive in the main read-out are mostly missing here. Potencies come from curve fits of mixed quality, noted in brackets.
Assay: qHTS Assay for Lipid Storage Modulators in Drosophila S3 Cells;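 as to cell number change: cells counted by Cell Tracker Red CMTPX staining in the red channel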
Conditions: BODIPY lipid droplet fluorescence, 18-24 h; for cell number change: measured here: cell count max response, cells fed with added oleic acid
Procedure, shortened: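 Laser-scanning cytometry quantifies lipid droplet accumulation (500–530 nm total intensity; droplet/cell object ratio) in oleic acid-fed (400 uM added) Drosophila S3 cells treated with a concentration series. 20 uM Triacsin C defined 100% inhibition.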

[1] = measured here: cell number channel AC50, cells fed with added oleic acid
[2] = measured here: lipid fluorescence (Fed channel) AC50, cells fed with added oleic acid

| SMILES | cell number change [%] | AC50 [1] | AC50 [2] |
| --- | --- | --- | --- |
| O=C(CSc1nc2ccccc2c(=O)n1CC1CCCO1)Nc1ccc(F)cc1 (stereo not drawn) | -6.96 | – | – |
| CCCCCCc1cc2cc(S(=O)(=O)c3ccc(C)cc3)c(=O)oc2cc1O | -38 | 18.4 µM [falling, single point] | – |
| Cc1ccc(/C=C(\NC(=O)c2ccccc2)C(=O)N2CCCCC2)cc1 | 14.4 | – | 4.11 µM [rising, single point] |
| Cc1c(C(=O)Nc2ccc(S(=O)(=O)N3CCOCC3)cc2)cccc1[N+](=O)[O-] | -13.1 | – | 2.31 µM [falling, partial curve, poor fit] |
| CCN(CC)S(=O)(=O)c1ccc(N2CCOCC2)c(NC(=O)C(C)(C)C)c1 | 3.73 | – | – |
| CC(=O)c1c(C)n(C)c2ccc(O)cc12 | 73.3 | 18.4 µM [rising, single point] | – |
| CCCc1nc2c(nnn2Cc2ccccc2Cl)c(=O)[nH]1 | 21.4 | – | 25.9 µM [rising, partial curve, poor fit] |
| CCOC(=O)C1(CC)CC(CSc2nc3ccccc3[nH]2)OC1=O (stereo not drawn) | 14.1 | 2.91 µM [rising, single point] | – |
| Cc1ccc(CNC(=O)C2CCN(S(=O)(=O)c3c(C)noc3/C=C/c3ccco3)CC2)cc1 | -2.63 | – | – |
| C=CCOc1ccc(C2NC(=O)c3ccccc3O2)cc1 (stereo not drawn) | 27.7 | – | – |
| CC(=O)c1cccc(NC(=O)CC2CCCC2)c1 | 14.8 | – | – |
| CCCCNC(=O)/C(=C/c1ccccc1)NC(C)=O | 7.45 | – | 29.1 µM [falling, single point] |
| Cc1cc2c3ccccc3ncn2n1 | 10.4 | – | 1.16 µM [rising, full curve] |
| CCCCn1c(N)c(N(CC)C(=O)c2cc(Br)ccc2Cl)c(=O)[nH]c1=O | -6.42 | 0.164 µM [falling, full curve, poor fit] | – |
| Cc1cc(OC(=O)c2ccccc2Cl)cc(=O)n1C | – | 6.51 µM [rising, single point] | – |
| COC(=O)c1ccc(OCC2c3cc(OC)c(OC)cc3CCN2C(=O)c2ccco2)cc1 (stereo not drawn) | -4.46 | 6.51 µM [falling, single point] | – |
| COc1cccc(C(=O)N2CCCC(CCC(=O)NCc3ccc(F)c(F)c3)C2)c1 (stereo not drawn) | -55.1 | 16.4 µM [falling, partial curve] | – |
| Cc1nnc(N2C(=O)C(=O)/C(=C(/O)c3ccc4c(c3)OCCO4)C2c2ccc(F)cc2)s1 (stereo not drawn) | -2.14 | – | 0.206 µM [rising, full curve] |
| Cc1ccc(NC(=O)CN2CCN(C)CC2)cc1S(=O)(=O)N1CCOCC1 | 30.4 | 23.1 µM [rising, single point] | 6.51 µM [falling, single point] |
| O=C(NC(=S)NC1CCS(=O)(=O)C1)c1cccc([N+](=O)[O-])c1 (stereo not drawn) | -12.4 | – | 29.1 µM [falling, single point] |

| SMILES | cell number change [%] | AC50 [1] | AC50 [2] |
| --- | --- | --- | --- |
| O=C(Nc1ccc2c(c1)OCO2)C1CC(=O)N(c2ccc(F)cc2)C1 (stereo not drawn) | 22.2 | – | 3.66 µM [falling, partial curve, poor fit] |
| Cc1oc2cc([N+](=O)[O-])c(O)c([N+](=O)[O-])c2c1C(=O)c1ccc(Br)cc1 | -3.05 | 6.51 µM [falling, single point] | 6.51 µM [falling, single point] |
| CC(C)c1nc(-c2c(N)n(C)c(=O)n(C)c2=O)sc1C(=O)C(C)(C)C | – | 0.461 µM [rising, full curve] | – |
| Nc1nc(NCc2ccco2)nc(Nc2ccccc2)c1[N+](=O)[O-] | -51.8 | – | 0.146 µM [falling, full curve, poor fit] |
| O=C(COC(=O)Cc1cccc(C(F)(F)F)c1)NC1CCS(=O)(=O)C1 (stereo not drawn) | -27.9 | – | 25.9 µM [falling, single point] |
| COc1cc(OC)cc(-c2c(C#Cc3ccsc3)c3cc(-c4ccc5c(c4)OCCO5)ccc3n2C)c1 | -5.88 | – | 0.58 µM [rising, partial curve] |
| CCCCn1c(=O)[nH]c(=O)c2c1nc(-c1ccccc1OC(F)F)n2C | -1.39 | – | – |
| CCCCn1c(N)c(N(CCC(C)C)C(=O)c2ccc([N+](=O)[O-])o2)c(=O)[nH]c1=O | 5.11 | – | 20.6 µM [falling, single point] |
| Cc1ccc(-c2cn(CCN)c(-c3ccncc3)n2)cc1 | 16.9 | 6.51 µM [falling, single point] | – |
| Cc1nccn1CC(=O)N/N=C/c1cccc(O)c1 | – | 0.00411 µM [falling, full curve, poor fit] | – |
| O=C(NNc1ccc(Cl)cc1)C1CCC1 | -36.9 | 0.461 µM [falling, full curve] | 0.411 µM [falling, full curve, poor fit] |
| O=C(OCC(=O)N1CCN(C(=O)c2ccco2)CC1)c1ccccc1OCc1ccc(Cl)cc1 | 9.21 | – | 29.1 µM [rising, single point] |
| Cc1nc2ccccc2c(=O)n1CCc1ccc(O)cc1 | -17.6 | – | – |
| COC(=O)CC1C(=O)NCCN1C(=S)Nc1cccc(C)c1 (stereo not drawn) | -29.1 | 0.651 µM [falling, full curve, poor fit] | 6.51 µM [falling, single point] |
| CC1=C(C#N)C(Nc2cccc(C)n2)(C(F)(F)F)C(=O)N1 (stereo not drawn) | 0.643 | – | 1.46 µM [falling, partial curve] |
| O=C(Cc1cccc2ccccc12)Nc1ccc2oc(-c3ccccc3)nc2c1 | – | – | 2.31 µM [rising, partial curve] |
| COC(=O)/C=C1\C(=O)N(c2nc3ccc(OC)cc3s2)C(=S)N1c1ccc(F)cc1 | -83 | 29.1 µM [falling, single point] | 29.1 µM [falling, partial curve, poor fit] |
| O=C(O)c1cccc(N2C(=O)C3CC=C(Cl)CC3C2=O)c1 (stereo not drawn) | 11 | – | 29.1 µM [rising, single point] |
| CC(OC(=O)c1cccc(N2C(=O)c3ccccc3C2=O)c1)C(=O)Nc1ccc(N(C)C)cc1 (stereo not drawn) | -15.6 | 0.116 µM [rising, full curve, poor fit] | 0.259 µM [rising, full curve, poor fit] |

Among those listed so far, these contain an NH in an aromatic ring.

| SMILES | cell number change [%] | AC50 [1] | AC50 [2] |
| --- | --- | --- | --- |
| CCCc1nc2c(nnn2Cc2ccccc2Cl)c(=O)[nH]1 | 21.4 | – | 25.9 µM [rising, partial curve, poor fit] |
| CCOC(=O)C1(CC)CC(CSc2nc3ccccc3[nH]2)OC1=O (stereo not drawn) | 14.1 | 2.91 µM [rising, single point] | – |
| CCCCn1c(N)c(N(CC)C(=O)c2cc(Br)ccc2Cl)c(=O)[nH]c1=O | -6.42 | 0.164 µM [falling, full curve, poor fit] | – |
| CCCCn1c(=O)[nH]c(=O)c2c1nc(-c1ccccc1OC(F)F)n2C | -1.39 | – | – |
| CCCCn1c(N)c(N(CCC(C)C)C(=O)c2ccc([N+](=O)[O-])o2)c(=O)[nH]c1=O | 5.11 | – | 20.6 µM [falling, single point] |

From PubChem BioAssay AID2685 (National Center for Advancing Translational Sciences (NCATS), 2010)
